Results taken from patent US5118392A, “Separation of trichloroethylene from a butyl alcohol by extractive distillation” (priority 1991, dated 1992).

Experiment: Vapor-liquid equilibrium still, trichloroethylene-2-butanol azeotrope with extractive distillation agent
Type: physicochemical
Details: trichloroethylene from 2-butanol, Table 7
Source text: The data in Tables 2, 3, 5, 7, 8, 10 and 11 was obtained in a vapor-liquid equilibrium still. In every case, the starting mixture was the trichloroethylene-butanol azeotrope. The relative volatilities are listed for each of the agents.
Seventy grams of the trichloroethylene-2-butanol azeotrope and 30 grams of 2-methyl-1-pentanol were charged to the vapor-liquid equilibrium still and refluxed for two hours.

CC(C)CC(C)O (stereo not shown) [4-Methyl-2-pentanol]
Relative Volatility: 1.75
